{
  "sequences": {"note": "Chains of the proteins cited; added tags and fusions are not shown. Residues count along the entry.", "UniProt P36894, residues 24-532": "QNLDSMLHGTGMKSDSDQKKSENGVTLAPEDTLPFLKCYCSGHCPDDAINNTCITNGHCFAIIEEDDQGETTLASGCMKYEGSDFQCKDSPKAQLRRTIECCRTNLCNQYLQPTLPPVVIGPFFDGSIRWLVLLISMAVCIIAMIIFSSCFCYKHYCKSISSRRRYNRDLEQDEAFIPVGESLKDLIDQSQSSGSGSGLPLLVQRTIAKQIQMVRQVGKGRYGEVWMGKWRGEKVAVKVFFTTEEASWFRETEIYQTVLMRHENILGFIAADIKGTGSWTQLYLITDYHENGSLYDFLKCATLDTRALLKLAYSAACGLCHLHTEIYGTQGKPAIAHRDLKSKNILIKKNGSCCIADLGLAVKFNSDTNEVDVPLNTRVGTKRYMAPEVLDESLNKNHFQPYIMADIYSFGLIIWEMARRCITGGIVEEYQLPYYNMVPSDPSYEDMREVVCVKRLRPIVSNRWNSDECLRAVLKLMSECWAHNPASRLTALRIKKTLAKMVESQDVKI"},
  "source": "paper PMC11516157",
  "binders": {"B1": {"name": "osteomodulin (OMD), endogenous in human renal interstitial fibroblasts (protein, UniProt Q99983 21-421)", "chain": "QYETYQWDEDYDQEPDDDYQTGFPFRQNVDYGVPFHQYTLGCVSECFCPTNFPSSMYCDNRKLKTIPNIPMHIQQLYLQFNEIEAVTANSFINATHLKEINLSHNKIKSQKIDYGVFAKLPNLLQLHLEHNNLEEFPFPLPKSLERLLLGYNEISKLQTNAMDGLVNLTMLDLCYNYLHDSLLKDKIFAKMEKLMQLNLCSNRLESMPPGLPSSLMYLSLENNSISSIPEKYFDKLPKLHTLRMSHNKLQDIPYNIFNLPNIVELSVGHNKLKQAFYIPRNLEHLYLQNNEIEKMNLTVMCPSIDPLHYHHLTYIRVDQNKLKEPISSYIFFCFPHIHTIYYGEQRSTNGQTIQLKTQVFRRFPDDDDESEDHDDPDNAHESPEQEGAEGHFDLHYYENQE"}},
  "molecular_target": "BMPR1A (BMP2 membrane receptor) (human (endogenous in hRIFs)) (UniProt P36894)",
  "assay": "co-IP; anti-BMPR1A immunoprecipitation from hRIFs; blots for BMP2 and OMD",
  "note": "Results are given in words; binding and its absence hold for the method and conditions named. Binding seen in cells or lysates may run through a third protein. Some entries that bind do so weakly or less than the wild type.",
  "data": [
    {"binder": "B1", "values": [
      {"measurement": "binding", "result": "binds"}
    ]}
  ]
}
